# Melanoma cell counts after drug treatment

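Human melanoma cells were exposed to two drugs together for 72 h in 1,536-well plates and read by automated microscopy after fixing and staining. Values are the number of DAPI-stained nuclei as a percentage of the DMSO control: 100 is no effect, lower means fewer cells. Every drug was used at one fixed concentration, the lower of two screened (a fifth of the higher). No replicate spread is given; individual values may be noisy.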
This is part of the screen, not chosen by result.
An entry leaves out what has no value listed here.
A dash means that no value is listed here.

Compounds and concentrations:
selumetinib: Cn1cnc2c(F)c(Nc3ccc(Br)cc3Cl)c(C(=O)NOCCO)cc21 at 0.015 µM
embelin: CCCCCCCCCCCC1=C(O)C(=O)C=C(O)C1=O at 1.2 µM
GW0742: Cc1cc(SCc2sc(-c3ccc(C(F)(F)F)c(F)c3)nc2C)ccc1OCC(=O)O at 2 µM
LFM-A13: C/C(O)=C(\C#N)C(=O)Nc1cc(Br)ccc1Br at 2 µM
RKI-983: C[C@@H](N)c1ccc(C(=O)Nc2ccnc3[nH]ccc23)cc1 at 0.4 µM
fingolimod: CCCCCCCCc1ccc(CCC(N)(CO)CO)cc1 at 2 µM
SNS-314: O=C(Nc1cccc(Cl)c1)Nc1ncc(CCNc2ncnc3ccsc23)s1 at 0.0008 µM
BI-78D3: O=c1[nH]nc(Sc2ncc([N+](=O)[O-])s2)n1-c1ccc2c(c1)OCCO2 at 0.2 µM
lapatinib: CS(=O)(=O)CCNCc1ccc(-c2ccc3ncnc(Nc4ccc(OCc5cccc(F)c5)c(Cl)c4)c3c2)o1 at 0.8 µM
nilutamide: CC1(C)NC(=O)N(c2ccc([N+](=O)[O-])c(C(F)(F)F)c2)C1=O at 1 µM
tozasertib: Cc1cc(Nc2cc(N3CCN(C)CC3)nc(Sc3ccc(NC(=O)C4CC4)cc3)n2)n[nH]1 at 0.006 µM
decitabine: Nc1ncn([C@H]2C[C@H](O)[C@@H](CO)O2)c(=O)n1 at 0.1 µM
PD173074: CCN(CC)CCCCNc1ncc2cc(-c3cc(OC)cc(OC)c3)c(NC(=O)NC(C)(C)C)nc2n1 at 0.1 µM
KU-55933: O=c1cc(-c2cccc3c2Sc2ccccc2S3)oc(N2CCOCC2)c1 at 1 µM
cisplatin: N.N.[Cl][Pt][Cl] at 1.6 µM
NVP-BEZ235: Cn1c(=O)n(-c2ccc(C(C)(C)C#N)cc2)c2c3cc(-c4cnc5ccccc5c4)ccc3ncc21 at 0.004 µM
CX-4945: O=C(O)c1ccc2c(c1)nc(Nc1cccc(Cl)c1)c1ccncc12 at 0.4 µM

* SNS-314 and fingolimod : A2058: 79.2
* NVP-BEZ235 and KU-55933 : MEL-HO: 89.1; IPC-298: 100; COLO 829: 141; 501mel: 92.4; A2058: 93.5
* NVP-BEZ235 and CX-4945 : MEL-HO: 78.4; IPC-298: 90.2; COLO 829: 114; A2058: 80.1
* PD173074 and decitabine : MEL-HO: 97.4; IPC-298: 67.0; COLO 829: 66.2; 501mel: 96.4; A2058: 80.8
* NVP-BEZ235 and tozasertib : MEL-HO: 97.0; IPC-298: 97.2; COLO 829: 114; A2058: 104
* CX-4945 and lapatinib : MEL-HO: 88.2; IPC-298: 90.4; COLO 829: 70.3; A2058: 84.9
* CX-4945 and LFM-A13 : MEL-HO: 73.6; IPC-298: 94.4; COLO 829: 79.3; A2058: 95.4
* KU-55933 and embelin : A2058: 89.4
* fingolimod and GW0742 : 501mel: 40.5; A2058: 98.9
* nilutamide and RKI-983 : A2058: 96.9
* RKI-983 and embelin : 501mel: 115; A2058: 79.2
* selumetinib and cisplatin : MEL-HO: 95.9; IPC-298: 81.0; COLO 829: 103
* GW0742 and decitabine : 501mel: 87.7; A2058: 98.8
* BI-78D3 and SNS-314 : A2058: 104
* decitabine and CX-4945 : MEL-HO: 76.1; IPC-298: 60.3; COLO 829: 56.1; A2058: 86.6
* selumetinib and GW0742 : A2058: 106
* RKI-983 and tozasertib : MEL-HO: 82.5; IPC-298: 104; COLO 829: 90.1; A2058: 77.2
* KU-55933 and GW0742 : MEL-HO: 94.4; IPC-298: 101; COLO 829: 105; 501mel: 91.7; A2058: 98.4
* nilutamide and KU-55933 : MEL-HO: 89.3; IPC-298: 105; COLO 829: 142; 501mel: 91.9; A2058: 102
* fingolimod and NVP-BEZ235 : MEL-HO: 76.8; IPC-298: 92.8; COLO 829: 83.4; A2058: 87.9
* NVP-BEZ235 and BI-78D3 : MEL-HO: 94.9; IPC-298: 100; COLO 829: 89.8; A2058: 95.4

Repeated from the top, 3 entries:

Combination,MEL-HO,IPC-298,COLO 829,501mel,A2058
SNS-314 and fingolimod,-,-,-,-,79.2
NVP-BEZ235 and KU-55933,89.1,100,141,92.4,93.5
NVP-BEZ235 and CX-4945,78.4,90.2,114,-,80.1

Values as published with doi:10.1371/journal.pone.0140310, rounded.